Data reported in PMC4673853.
These are yes or no findings as the source states them, for the method shown. In cells and extracts the contact can be indirect. Some binding calls cover weakened binding; strength is not graded here. Tags and fused reporters may be left off the sequences shown.

What was measured:
[1] = biological target: Flag-TARBP2-WT (human) (UniProt Q15633); assay: co-IP; 293T cells transfected with Flag-TARBP2-WT or -K52R with or without the partner's plasmid; lysates IP with anti-Flag antibody, western blot; in Fig. 7c cells treated with 100 uM H2O2 for 3 h before harvest
[2] = biological target: T1, Flag-TARBP2-K52R (human) (UniProt Q15633); assay: as above
T1 sequence: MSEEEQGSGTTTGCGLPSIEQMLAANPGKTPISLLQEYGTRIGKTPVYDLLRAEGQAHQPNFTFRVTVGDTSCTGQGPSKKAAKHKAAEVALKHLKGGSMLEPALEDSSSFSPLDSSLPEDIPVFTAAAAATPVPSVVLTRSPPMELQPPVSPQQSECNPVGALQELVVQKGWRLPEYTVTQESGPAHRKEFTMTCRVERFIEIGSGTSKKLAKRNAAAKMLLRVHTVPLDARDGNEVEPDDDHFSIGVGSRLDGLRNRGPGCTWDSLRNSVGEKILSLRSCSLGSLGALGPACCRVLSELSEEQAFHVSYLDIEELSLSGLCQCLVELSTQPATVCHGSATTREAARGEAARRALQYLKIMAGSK

binding [1]: binds
binding [2]: binds
B1: GFP-KSRP (protein, UniProt Q92945 1-711)
chain: MSDYSTGGPPPGPPPPAGGGGGAGGAGGGPPPGPPGAGDRGGGGPGGGGPGGGSAGGPSQPPGGGGPGIRKDAFADAVQRARQIAAKIGGDAATTVNNSTPDFGFGGQKRQLEDGDQPESKKLASQGDSISSQLGPIHPPPRTSMTEEYRVPDGMVGLIIGRGGEQINKIQQDSGCKVQISPDSGGLPERSVSLTGAPESVQKAKMMLDDIVSRGRGGPPGQFHDNANGGQNGTVQEIMIPAGKAGLVIGKGGETIKQLQERAGVKMILIQDGSQNTNVDKPLRIIGDPYKVQQACEMVMDILRERDQGGFGDRNEYGSRIGGGIDVPVPRHSVGVVIGRSGEMIKKIQNDAGVRIQFKQDDGTGPEKIAHIMGPPDRCEHAARIINDLLQSLRSGPPGPPGGPGMPPGGRGRGRGQGNWGPPGGEMTFSIPTHKCGLVIGRGGENVKAINQQTGAFVEISRQLPPNGDPNFKLFIIRGSPQQIDHAKQLIEEKIEGPLCPVGPGPGGPGPAGPMGPFNPGPFNQGPPGAPPHAGGPPPHQYPPQGWGNTYPQWQPPAPHDPSKAAAAAADPNAAWAAYYSHYYQQPPGPVPGPAPAPAAPPAQGEPPQPPPTGQSDYTKAWEEYYKKIGQQPQQPGAPPQQDYTKAWEEYYKKQAQVATGGGPGAPPGSQPDYSAAWAEYYRQQAAYYGQTPGPGGPQPPPTQQGQQQAQ
